# These are yes or no findings as the source states them, for the method shown. Binding seen in cells or lysates may run through a third protein. Some results given as binding are weak or reduced against the parent protein; the word gives no strength. For some assays here: Tags and fused reporters may be left off the sequences shown.
# Chains of the proteins cited; added tags and fusions are not shown. Lines headed by an entry give the natural chain unless they say otherwise; changes in a name come on top. A line that says so, or that is headed by a name, gives the form on record, which may keep a tag or linker.
# UniProt Q09472: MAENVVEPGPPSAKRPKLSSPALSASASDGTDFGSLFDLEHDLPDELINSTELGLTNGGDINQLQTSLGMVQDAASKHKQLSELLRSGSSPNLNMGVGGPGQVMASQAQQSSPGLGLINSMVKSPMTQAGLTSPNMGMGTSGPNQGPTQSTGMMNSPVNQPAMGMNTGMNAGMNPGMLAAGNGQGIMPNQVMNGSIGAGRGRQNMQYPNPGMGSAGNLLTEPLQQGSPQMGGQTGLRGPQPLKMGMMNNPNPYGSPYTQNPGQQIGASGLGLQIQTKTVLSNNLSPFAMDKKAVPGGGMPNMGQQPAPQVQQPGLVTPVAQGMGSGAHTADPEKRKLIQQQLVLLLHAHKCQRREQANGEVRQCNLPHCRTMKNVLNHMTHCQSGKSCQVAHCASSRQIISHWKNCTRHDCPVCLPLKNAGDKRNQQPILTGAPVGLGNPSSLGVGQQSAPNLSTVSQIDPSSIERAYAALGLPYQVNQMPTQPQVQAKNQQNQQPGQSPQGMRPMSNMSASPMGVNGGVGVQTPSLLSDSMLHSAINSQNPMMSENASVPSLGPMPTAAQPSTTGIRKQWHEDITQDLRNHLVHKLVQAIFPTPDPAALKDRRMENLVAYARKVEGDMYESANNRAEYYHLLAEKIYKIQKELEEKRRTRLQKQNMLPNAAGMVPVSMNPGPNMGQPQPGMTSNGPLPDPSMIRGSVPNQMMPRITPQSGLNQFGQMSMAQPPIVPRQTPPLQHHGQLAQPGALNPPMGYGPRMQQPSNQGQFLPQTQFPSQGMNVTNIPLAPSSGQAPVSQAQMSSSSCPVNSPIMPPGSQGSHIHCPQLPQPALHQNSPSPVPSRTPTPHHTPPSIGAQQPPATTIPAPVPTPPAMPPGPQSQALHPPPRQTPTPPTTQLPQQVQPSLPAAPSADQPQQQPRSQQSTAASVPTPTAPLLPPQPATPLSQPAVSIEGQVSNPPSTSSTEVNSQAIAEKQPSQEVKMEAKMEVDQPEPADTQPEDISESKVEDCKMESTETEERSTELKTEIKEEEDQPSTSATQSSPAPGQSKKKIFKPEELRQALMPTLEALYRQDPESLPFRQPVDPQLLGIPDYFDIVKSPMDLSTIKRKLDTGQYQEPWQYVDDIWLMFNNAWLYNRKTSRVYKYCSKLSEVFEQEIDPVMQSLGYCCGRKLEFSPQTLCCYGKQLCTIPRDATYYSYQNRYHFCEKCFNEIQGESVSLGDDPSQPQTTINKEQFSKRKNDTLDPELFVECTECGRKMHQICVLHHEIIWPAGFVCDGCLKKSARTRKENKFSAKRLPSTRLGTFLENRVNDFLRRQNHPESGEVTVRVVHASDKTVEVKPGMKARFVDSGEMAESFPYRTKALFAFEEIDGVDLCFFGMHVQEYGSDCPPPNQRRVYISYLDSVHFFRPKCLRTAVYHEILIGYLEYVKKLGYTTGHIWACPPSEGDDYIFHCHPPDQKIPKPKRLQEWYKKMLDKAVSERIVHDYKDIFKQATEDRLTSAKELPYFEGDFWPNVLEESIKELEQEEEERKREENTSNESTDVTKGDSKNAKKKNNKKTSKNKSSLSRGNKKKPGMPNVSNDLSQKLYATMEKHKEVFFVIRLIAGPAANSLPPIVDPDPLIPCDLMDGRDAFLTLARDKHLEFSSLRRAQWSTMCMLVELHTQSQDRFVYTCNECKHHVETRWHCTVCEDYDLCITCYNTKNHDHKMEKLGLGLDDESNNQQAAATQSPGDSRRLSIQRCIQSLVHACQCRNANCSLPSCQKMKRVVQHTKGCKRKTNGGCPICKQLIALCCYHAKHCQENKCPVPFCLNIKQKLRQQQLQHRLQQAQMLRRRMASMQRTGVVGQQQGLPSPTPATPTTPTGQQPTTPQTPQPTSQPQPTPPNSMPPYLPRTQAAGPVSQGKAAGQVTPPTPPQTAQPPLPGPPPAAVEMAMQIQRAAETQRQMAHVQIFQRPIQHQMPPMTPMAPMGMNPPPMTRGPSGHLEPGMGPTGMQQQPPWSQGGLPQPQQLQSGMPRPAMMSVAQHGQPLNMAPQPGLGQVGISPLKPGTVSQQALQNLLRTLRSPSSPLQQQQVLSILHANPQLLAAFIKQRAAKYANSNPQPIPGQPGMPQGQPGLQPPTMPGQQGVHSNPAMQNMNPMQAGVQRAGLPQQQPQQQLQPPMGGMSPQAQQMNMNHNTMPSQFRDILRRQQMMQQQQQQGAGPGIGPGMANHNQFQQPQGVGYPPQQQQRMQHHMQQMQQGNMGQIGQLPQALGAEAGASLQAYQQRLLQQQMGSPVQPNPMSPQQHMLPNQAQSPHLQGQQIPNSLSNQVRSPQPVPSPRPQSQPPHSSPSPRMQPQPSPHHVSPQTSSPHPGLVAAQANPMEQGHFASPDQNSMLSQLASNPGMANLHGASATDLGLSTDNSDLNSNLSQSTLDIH
# UniProt P49841: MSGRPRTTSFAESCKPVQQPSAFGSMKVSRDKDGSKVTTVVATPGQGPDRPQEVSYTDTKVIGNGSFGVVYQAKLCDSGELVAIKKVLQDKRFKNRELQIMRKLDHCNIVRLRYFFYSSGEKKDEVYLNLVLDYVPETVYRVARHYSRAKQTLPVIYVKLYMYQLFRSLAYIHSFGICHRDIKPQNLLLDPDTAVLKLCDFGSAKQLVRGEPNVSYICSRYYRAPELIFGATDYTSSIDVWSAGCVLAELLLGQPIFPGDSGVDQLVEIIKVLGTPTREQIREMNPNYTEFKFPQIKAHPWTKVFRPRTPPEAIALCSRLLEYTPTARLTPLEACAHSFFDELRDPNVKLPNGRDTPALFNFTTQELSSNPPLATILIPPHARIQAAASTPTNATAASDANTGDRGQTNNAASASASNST
# GSK3β full length (CBP tag) (human (by the printed RefSeq entry)) (P49841-2, form named): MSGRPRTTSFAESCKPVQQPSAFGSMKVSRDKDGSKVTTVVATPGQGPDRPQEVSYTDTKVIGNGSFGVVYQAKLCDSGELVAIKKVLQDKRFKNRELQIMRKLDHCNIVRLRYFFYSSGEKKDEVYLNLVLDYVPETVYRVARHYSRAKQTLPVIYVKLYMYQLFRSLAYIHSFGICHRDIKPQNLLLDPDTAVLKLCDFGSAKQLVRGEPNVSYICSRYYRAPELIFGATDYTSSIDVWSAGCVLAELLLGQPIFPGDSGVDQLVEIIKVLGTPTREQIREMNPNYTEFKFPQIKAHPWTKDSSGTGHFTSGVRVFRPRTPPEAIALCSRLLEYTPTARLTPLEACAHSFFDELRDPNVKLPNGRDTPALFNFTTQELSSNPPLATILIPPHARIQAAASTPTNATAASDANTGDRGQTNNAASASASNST
# 56-353/GSK3β (kinase domain of GSK3β, CBP tag) (human (by the printed RefSeq entry)) (P49841-2, form named): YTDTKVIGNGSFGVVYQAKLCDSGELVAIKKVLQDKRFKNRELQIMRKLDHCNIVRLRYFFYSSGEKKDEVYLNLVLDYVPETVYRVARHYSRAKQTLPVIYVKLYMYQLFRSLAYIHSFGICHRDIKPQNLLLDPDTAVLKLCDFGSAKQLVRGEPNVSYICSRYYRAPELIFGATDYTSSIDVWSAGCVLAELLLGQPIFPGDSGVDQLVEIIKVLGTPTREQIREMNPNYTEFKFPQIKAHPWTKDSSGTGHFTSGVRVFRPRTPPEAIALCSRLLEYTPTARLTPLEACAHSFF
# T1: ETS1 (endogenous) (human (endogenous in MDAH2774)) (UniProt P14921)
# T1 sequence: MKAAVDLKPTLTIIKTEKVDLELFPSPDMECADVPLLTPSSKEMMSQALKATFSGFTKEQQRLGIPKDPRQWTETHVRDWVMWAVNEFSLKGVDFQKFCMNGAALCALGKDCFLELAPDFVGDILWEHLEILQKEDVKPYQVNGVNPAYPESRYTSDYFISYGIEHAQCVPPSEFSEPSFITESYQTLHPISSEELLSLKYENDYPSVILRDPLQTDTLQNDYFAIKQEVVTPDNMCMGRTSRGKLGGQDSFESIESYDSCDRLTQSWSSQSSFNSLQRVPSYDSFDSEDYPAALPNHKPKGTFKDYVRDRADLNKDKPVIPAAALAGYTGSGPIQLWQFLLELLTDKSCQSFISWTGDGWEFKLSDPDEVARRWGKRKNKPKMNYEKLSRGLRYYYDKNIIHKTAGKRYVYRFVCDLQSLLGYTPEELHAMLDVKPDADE
# T2: ETS1 full length (FL) construct purified with streptavidin beads (human (by the printed RefSeq entry)) (UniProt P14921)
# T2 sequence: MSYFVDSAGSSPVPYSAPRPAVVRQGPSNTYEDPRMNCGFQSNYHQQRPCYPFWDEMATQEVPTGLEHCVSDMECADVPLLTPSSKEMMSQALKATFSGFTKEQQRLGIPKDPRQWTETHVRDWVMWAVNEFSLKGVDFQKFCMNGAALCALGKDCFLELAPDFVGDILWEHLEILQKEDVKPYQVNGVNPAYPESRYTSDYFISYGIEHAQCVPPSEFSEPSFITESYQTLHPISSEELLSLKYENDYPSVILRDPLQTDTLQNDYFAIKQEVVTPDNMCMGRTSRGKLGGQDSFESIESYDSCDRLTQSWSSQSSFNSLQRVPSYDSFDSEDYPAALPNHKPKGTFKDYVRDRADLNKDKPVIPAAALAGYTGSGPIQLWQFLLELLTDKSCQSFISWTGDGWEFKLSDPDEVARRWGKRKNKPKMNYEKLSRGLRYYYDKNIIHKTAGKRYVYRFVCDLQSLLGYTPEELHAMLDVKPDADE
# B1: Halo-ETS1 (full-length ETS1, Halo tag) (protein, UniProt P14921-3 1-485)
# chain: T2 sequence
# What was measured:
# [1] = biological target: T1, ETS1 (endogenous) (human (endogenous in MDAH2774)); assay: co-IP; endogenous proteins in MDAH2774 lysate; precipitated with an anti-ETS1 or an anti-GSK3β antibody, control IgG; western blot; lysis buffer 20 mM Tris-Cl pH 7.4, 25 mM NaCl, 0.1% NP40; overnight at 4 °C
# [2] = biological target: T2, ETS1 full length (FL) construct purified with streptavidin beads (human (by the printed RefSeq entry)); assay: pull-down; 293 cells co-transfected with HA-GSK3β or control vector and full length or truncated ETS1 constructs; purification with streptavidin beads; co-precipitated GSK3β detected with an anti-HA antibody
# [3] = biological target: p300 (human (endogenous in 293)) (UniProt Q09472); assay: co-IP; 293 cells overexpressing Halo-ETS1 or Halo-ETS1-3A; precipitated with an anti-p300 antibody; detected with an anti-Halo tag antibody
# [4] = biological target: 56-353/GSK3β (kinase domain of GSK3β, CBP tag) (human (by the printed RefSeq entry)) (UniProt P49841); assay: co-IP; 293 cells transfected with Halo-ETS1 and control vector, full length or truncated GSK3β constructs (CBP tag); ETS1 in the complex detected with an anti-Halo tag antibody; resin not told
# [5] = biological target: GSK3β full length (CBP tag) (human (by the printed RefSeq entry)) (UniProt P49841); assay: as above
molecule,measurement,setting,value
Glycogen synthase kinase-3β (endogenous) (from UniProt P49841 1-420) (enzyme),binding,[1],binds
HA-GSK3β (full-length GSK3β) (from UniProt P49841-2 1-433) (enzyme),binding,[2],binds
B1,binding,[3],binds
same,binding,[4],binds
same,binding,[5],binds

# From paper PMC8202891
